Measured values from the supplement of paper PMC7752906.
Counter-ions that a name gives are not always drawn. Some of the results follow. This data set is noisy: repeats of one test often differ as much as different tests do.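 Wells held roughly 40 S. mansoni schistosomula, imaged in bright field over time against wells given 0.1% DMSO. The paper defines hits as drugs with a Mahalanobis distance of at least 2.47, three standard deviations above the DMSO control mean. Degeneracy is the proportion of worms classified as opaque.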

What follows are compounds tested on Schistosoma mansoni schistosomula (assay: degeneracy (percent of somules classified as degenerate/opaque); higher = more parasite degeneration/death; extreme values may be limits of the assay). Conditions: 10 µM; 72 h.

Question: `CC(C)(CO)[C@@H](O)C(=O)NCCC(=O)NCCSSCCNC(=O)CCNC(=O)[C@H](O)C(C)(C)CO` [Pantethine] was tested. Which degeneracy did it give?
Answer: 0%

Question: For `CN1CCN(CC/C=C2/c3ccccc3Sc3ccc(S(=O)(=O)N(C)C)cc32)CC1` [Thiothixene], which degeneracy is on record?
Answer: 100%

Question: With `O=C(O)Cc1ccc(-c2ccccc2)cc1` [Felbinac] as the compound, how does the degeneracy read?
Answer: 8.33%

Question: With `O=C(O)c1cn(-c2ccc(F)cc2)c2cc(N3CCNCC3)c(F)cc2c1=O` [Sarafloxacin Hydrochloride] as the compound, how does the degeneracy read?
Answer: 6.52%

Question: `CC(=O)OCC(=O)[C@@]1(O)[C@@H](C)C[C@H]2[C@@H]3CCC4=CC(=O)C=C[C@]4(C)[C@@]3(F)[C@@H](O)C[C@@]21C` [Betamethasone Acetate] was tested. Which degeneracy did it give?
Answer: 8%

Question: With `CN1CCN(C2=Nc3ccccc3Oc3ccc(Cl)cc32)CC1` [Loxapine Succinate] as the compound, how does the degeneracy read?
Answer: 0%

Question: Which degeneracy does the source give for `CC(C)CC(N)=O` [Isovaleramide] here?
Answer: 9.09%

Question: With `Oc1ccc2ccccc2c1` [Beta-naphthol] as the compound, how does the degeneracy read?
Answer: 100%

Question: For `CN(C)CCCN1c2ccccc2Sc2ccc(C(F)(F)F)cc21` [Triflupromazine Hydrochloride], which degeneracy is on record?
Answer: 100%

Question: How did the degeneracy turn out when `CC(=O)Oc1ccccc1C(=O)Nc1ncc([N+](=O)[O-])s1` [Nitazoxanide] was run?
Answer: 100%

Question: How did the degeneracy turn out when `CC1(C)OC(=O)C(OCC2CC2)=C1c1ccc(S(C)(=O)=O)cc1` [Firocoxib] was run?
Answer: 7.69%

Question: With `CCN(CC)CCOC(=O)C1(C2CCCCC2)CCCCC1` [Dicyclomine] as the compound, how does the degeneracy read?
Answer: 100%

Question: For `CCCCOCCOCCOCc1cc2c(cc1CCC)OCO2` [Piperonyl Butoxide], which degeneracy is on record?
Answer: 3.45%

Question: `CC[N+](C)(CC)CCOC(=O)C(O)(c1ccccc1)C1CCCCC1` (stereo not drawn) [Oxyphenonium Bromide] was tested. Which degeneracy did it give?
Answer: 8.11%

Question: With `CN(C)CCc1c[nH]c2ccc(C[C@H]3COC(=O)N3)cc12` [Zolmitriptan] as the compound, how does the degeneracy read?
Answer: 2.63%

Question: For `CN(C)CCC=C1c2ccccc2C=Cc2ccccc21` [Cyclobenzaprine], which degeneracy is on record?
Answer: 100%

Question: With `O=c1[nH]c(=O)n([C@H]2C[C@H](O)[C@@H](CO)O2)cc1F` [Floxuridine] as the compound, how does the degeneracy read?
Answer: 88%

Question: With `CC1=C(/C=C/C(C)=C/C=C/C(C)=C/C(=O)Nc2ccc(O)cc2)C(C)(C)CCC1` [Fenretinide] as the compound, how does the degeneracy read?
Answer: 100%

Question: Which degeneracy does the source give for `Nc1ncnc2c1ncn2[C@@H]1O[C@H](COP(=O)(O)O)[C@@H](O)[C@H]1O` [Adenosine Phosphate] here?
Answer: 19.1%

Question: How did the degeneracy turn out when `CCC(=O)O[C@H]1[C@H](O[C@@H]2[C@@H](C)[C@H](O[C@H]3C[C@@](C)(OC)[C@@H](O)[C@H](C)O3)[C@@H](C)C(=O)O[C@H](CC)[C@@](C)(O)[C@H](O)[C@@H](C)C(=O)[C@H](C)C[C@@]2(C)O)O[C@H](C)C[C@@H]1N(C)C` [Erythromycin Propionate] was run?
Answer: 100%

Question: `CC(=O)Oc1cc(C(C)C)c(OCCN(C)C)cc1C` [Moxisylyte Hydrochoride] was tested. Which degeneracy did it give?
Answer: 4.65%

Question: For `O=C(O)c1cc(O)c2c(c1)[C@H]([C@H]1c3cc(C(=O)O)cc(O)c3C(=O)c3c(O[C@@H]4O[C@H](CO)[C@@H](O)[C@H](O)[C@H]4O)cccc31)c1cccc(O[C@@H]3O[C@H](CO)[C@@H](O)[C@H](O)[C@H]3O)c1C2=O` [Sennoside A], which degeneracy is on record?
Answer: 4.65%

Question: With `CN(C)CCCOc1nn(Cc2ccccc2)c2ccccc12` [Benzydamine Hydrochloride] as the compound, how does the degeneracy read?
Answer: 37.5%

Question: Which degeneracy does the source give for `S=C=Nc1ccc(N=C=S)cc1` [Bitoscanate] here?
Answer: 100%

Question: Which degeneracy does the source give for `OC[C@@H](O)[C@@H](O)[C@H](O)[C@@H](O)CO` [Sorbitol] here?
Answer: 0%

Question: How did the degeneracy turn out when `COc1cc(C(=O)N2CCOCC2)cc(OC)c1OC` [Trimetozine] was run?
Answer: 2.78%

Question: For `COc1cc2nc(N3CCN(C(=O)C4CCCO4)CC3)nc(N)c2cc1OC` (stereo not drawn) [Terazosin], which degeneracy is on record?
Answer: 0%

Question: With `C[C@H]1C[C@H]2[C@@H]3CCC4=CC(=O)C=C[C@]4(C)[C@@]3(Cl)[C@@H](O)C[C@]2(C)[C@@]1(O)C(=O)CO` [Beclomethasone] as the compound, how does the degeneracy read?
Answer: 17.8%

Question: How did the degeneracy turn out when `CC1CCC(NC(=O)N(CCCl)N=O)CC1` (stereo not drawn) [Semustine] was run?
Answer: 6.06%

Question: `Nc1ccc(S(=O)(=O)Nc2ccc(Cl)nn2)cc1` [Sulfachlorpyridazine] was tested. Which degeneracy did it give?
Answer: 6.06%

Question: Which degeneracy does the source give for `Cc1cc2nc3ccc(N(C)C)cc3[s+]c2cc1N` [Tolonium Chloride] here?
Answer: 100%

Question: How did the degeneracy turn out when `C=C1/C(=C\C=C2/CCC[C@]3(C)[C@@H]([C@H](C)CCCC(C)(C)O)CC[C@@H]23)C[C@@H](O)C[C@@H]1O` [Calcitriol] was run?
Answer: 10%

Question: With `CC(C)(O/N=C(\C(=O)N[C@@H]1C(=O)N2C(C(=O)[O-])=C(C[n+]3ccccc3)CS[C@H]12)c1csc(N)n1)C(=O)O` [Ceftazidime] as the compound, how does the degeneracy read?
Answer: 2.94%

Question: How did the degeneracy turn out when `Cc1ccc(/C(=C\CN2CCCC2)c2ccccn2)cc1` [Triprolidine Hydrochloride] was run?
Answer: 46.1%

Question: `CNCCC=C1c2ccccc2CCc2ccccc21` [Nortriptyline] was tested. Which degeneracy did it give?
Answer: 100%

Question: Which degeneracy does the source give for `CC(=O)Nc1c(I)c(NC(C)=O)c(I)c(C(=O)O)c1I` [Diatrizoic Acid] here?
Answer: 5.26%

Question: With `O=C(N/N=C/c1ccc([N+](=O)[O-])o1)c1ccc(O)cc1` [nifuroxazide] as the compound, how does the degeneracy read?
Answer: 100%

Question: With `CN1CCN(C(c2ccccc2)c2ccc(Cl)cc2)CC1` (stereo not drawn) [Chlorcyclizine Hydrochloride] as the compound, how does the degeneracy read?
Answer: 10.5%

Question: How did the degeneracy turn out when `Cc1ccc(S(=O)(=O)NCl)cc1` [Chloramine-t] was run?
Answer: 1.89%

Question: Which degeneracy does the source give for `CS(=O)(=O)Nc1ccc([N+](=O)[O-])cc1Oc1ccccc1` [Nimesulide] here?
Answer: 12.1%

Question: For `CCC1=C[C@@H]2CN(C1)Cc1c([nH]c3ccccc13)[C@@](C(=O)OC)(c1cc3c(cc1OC)N(C)[C@H]1[C@@](O)(C(=O)OC)[C@H](OC(C)=O)[C@]4(CC)C=CCN5CC[C@]31[C@@H]54)C2` [Vinorelbine], which degeneracy is on record?
Answer: 5.56%

Question: How did the degeneracy turn out when `OCc1ccccc1` [Benzyl Alcohol] was run?
Answer: 6.45%

Question: How did the degeneracy turn out when `CNC(=C[N+](=O)[O-])NCCSCc1csc(CN(C)C)n1` [Nizatidine] was run?
Answer: 13.8%

Question: `C[C@]12C=CC(=O)C=C1CC[C@@H]1[C@@H]2C(=O)C[C@@]2(C)[C@H]1CC[C@]2(O)C(=O)CO` [Prednisone] was tested. Which degeneracy did it give?
Answer: 6.06%

Question: With `NS(=O)(=O)c1ccc(C(=O)O)cc1` [Carzenide] as the compound, how does the degeneracy read?
Answer: 9.52%

Question: With `CCOc1ccccc1C(N)=O` [Ethenzamide] as the compound, how does the degeneracy read?
Answer: 4.17%

Question: Which degeneracy does the source give for `CO[C@H]1C[C@@H]2CC[C@@H](C)[C@@](O)(O2)C(=O)C(=O)N2CCCC[C@H]2C(=O)O[C@H]([C@H](C)C[C@@H]2CC[C@@H](O)[C@H](OC)C2)CC(=O)[C@H](C)/C=C(\C)[C@@H](O)[C@@H](OC)C(=O)[C@H](C)C[C@H](C)/C=C/C=C/C=C/1C` [Sirolimus] here?
Answer: 25%

Question: `CO[C@H]1C[C@@H]2CC[C@@H](C)[C@@](O)(O2)C(=O)C(=O)N2CCCC[C@H]2C(=O)O[C@H]([C@H](C)C[C@@H]2CC[C@@H](O)[C@H](OC)C2)CC(=O)[C@H](C)/C=C(\C)[C@@H](O)[C@@H](OC)C(=O)[C@H](C)C[C@H](C)/C=C/C=C/C=C/1C` [Rapamycin] was tested. Which degeneracy did it give?
Answer: 68.2%
